In article PMC11784297:
These are yes or no findings as the source states them, for the method shown. In cells and extracts the contact can be indirect. Some results given as binding are weak or reduced against the parent protein; the word gives no strength. For part of these data: Tags and fused reporters may be left off the sequences shown.

The chains behind the UniProt entries cited, without tags or fusion partners.
UniProt P52630: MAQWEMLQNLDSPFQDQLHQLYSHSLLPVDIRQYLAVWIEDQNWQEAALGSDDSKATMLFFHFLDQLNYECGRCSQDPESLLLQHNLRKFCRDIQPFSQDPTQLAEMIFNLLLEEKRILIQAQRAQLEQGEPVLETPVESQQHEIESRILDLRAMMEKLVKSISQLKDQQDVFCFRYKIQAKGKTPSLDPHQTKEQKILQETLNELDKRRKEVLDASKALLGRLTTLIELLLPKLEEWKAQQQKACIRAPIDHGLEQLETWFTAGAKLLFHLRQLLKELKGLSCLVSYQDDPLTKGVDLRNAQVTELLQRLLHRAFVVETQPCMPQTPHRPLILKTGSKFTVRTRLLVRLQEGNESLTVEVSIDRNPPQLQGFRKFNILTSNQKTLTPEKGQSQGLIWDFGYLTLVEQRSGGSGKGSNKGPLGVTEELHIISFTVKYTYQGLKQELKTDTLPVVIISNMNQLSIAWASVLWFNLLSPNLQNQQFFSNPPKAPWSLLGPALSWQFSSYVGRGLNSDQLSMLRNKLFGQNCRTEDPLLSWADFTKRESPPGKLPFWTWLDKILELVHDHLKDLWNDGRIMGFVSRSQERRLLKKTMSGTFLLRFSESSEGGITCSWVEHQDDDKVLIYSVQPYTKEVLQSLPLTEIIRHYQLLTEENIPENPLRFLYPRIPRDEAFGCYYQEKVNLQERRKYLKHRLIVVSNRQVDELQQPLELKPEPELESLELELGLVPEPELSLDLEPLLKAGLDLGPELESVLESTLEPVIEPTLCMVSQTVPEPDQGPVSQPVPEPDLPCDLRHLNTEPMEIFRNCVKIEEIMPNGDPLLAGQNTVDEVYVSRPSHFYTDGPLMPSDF
UniProt P42224: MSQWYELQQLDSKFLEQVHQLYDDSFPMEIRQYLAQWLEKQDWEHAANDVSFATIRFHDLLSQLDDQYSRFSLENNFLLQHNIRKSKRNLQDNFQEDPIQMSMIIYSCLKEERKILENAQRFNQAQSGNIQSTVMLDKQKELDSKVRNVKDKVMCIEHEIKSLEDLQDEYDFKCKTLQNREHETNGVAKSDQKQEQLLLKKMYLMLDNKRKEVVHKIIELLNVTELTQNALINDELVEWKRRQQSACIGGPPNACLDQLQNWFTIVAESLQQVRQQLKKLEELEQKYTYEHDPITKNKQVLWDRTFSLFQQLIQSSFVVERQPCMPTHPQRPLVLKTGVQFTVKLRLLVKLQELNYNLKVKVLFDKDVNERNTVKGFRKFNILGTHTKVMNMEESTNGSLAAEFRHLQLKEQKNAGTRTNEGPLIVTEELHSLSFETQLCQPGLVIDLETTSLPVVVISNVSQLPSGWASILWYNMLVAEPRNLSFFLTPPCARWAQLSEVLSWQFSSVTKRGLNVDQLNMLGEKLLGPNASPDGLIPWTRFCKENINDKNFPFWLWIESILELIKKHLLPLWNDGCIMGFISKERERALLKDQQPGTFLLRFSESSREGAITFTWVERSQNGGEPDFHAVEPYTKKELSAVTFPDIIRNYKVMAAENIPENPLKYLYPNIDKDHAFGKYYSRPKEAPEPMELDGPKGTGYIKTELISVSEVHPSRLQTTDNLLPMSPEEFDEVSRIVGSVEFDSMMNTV

What was measured:
Assay in all cases: co-IP
HA-tagged STAT2 = HA-tagged STAT2 (UniProt P52630)
HA-tagged STAT1 = HA-tagged STAT1 (UniProt P42224)
HA-tagged IRF9 = molecular target: T1, HA-tagged IRF9 (UniProt Q00978)
T1 sequence: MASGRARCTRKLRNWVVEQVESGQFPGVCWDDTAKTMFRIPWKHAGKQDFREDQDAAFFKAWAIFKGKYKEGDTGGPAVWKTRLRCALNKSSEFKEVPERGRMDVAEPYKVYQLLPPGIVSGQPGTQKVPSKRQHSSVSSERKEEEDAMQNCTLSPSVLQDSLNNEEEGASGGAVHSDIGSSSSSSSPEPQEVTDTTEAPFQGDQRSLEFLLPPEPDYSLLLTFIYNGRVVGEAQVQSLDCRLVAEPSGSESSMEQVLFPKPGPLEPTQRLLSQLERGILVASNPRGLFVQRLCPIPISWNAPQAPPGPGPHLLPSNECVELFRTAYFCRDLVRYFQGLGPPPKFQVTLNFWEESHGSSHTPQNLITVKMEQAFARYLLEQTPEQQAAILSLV

Measured: binding

S2 domain (aa 688-1273) of the SARS-CoV-2 S protein (from UniProt P0DTC2 688-1273) (domain or fragment)
binds: all assays above
